The source of these data is PubChem BioAssay AID2685 (National Center for Advancing Translational Sciences (NCATS), 2010).

The list shows a part of the results. These are further read-outs of the screen, such as a control signal, another cell line or another target. No call is given for them. The list favours compounds with an active or inconclusive main result. The note in brackets gives the kind of curve behind each potency; many fits are weak.

This experiment can be described thus: qHTS Assay for Lipid Storage Modulators in Drosophila S3 Cells.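 On cell number change: cells counted by Cell Tracker Red CMTPX staining in the red channel.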 As to conditions: BODIPY lipid droplet fluorescence, 18-24 h; for cell number change: measured here: cell count max response, cells fed with added oleic acid. Put shortly:
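Drosophila S3 cells got compounds at several concentrations plus oleic acid (400 uM solution). Laser-scanning cytometry with 488 nm excitation read lipid droplets at 500-530 nm and cells at 575-640 nm. Percent activity was relative to 20 uM Triacsin C.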
For orientation: In qHTS, concentration-response curves come from the screen itself.

Where [1] appears, read: measured here: cell number channel AC50, cells fed with added oleic acid.
Where [2] appears, read: measured here: lipid fluorescence (Fed channel) AC50, cells fed with added oleic acid.

For orientation: AC50 means the concentration giving half of the maximal activity seen. Lower therefore signals greater potency.

In the case of `O=C(CN(C(=O)CNC(=O)c1ccco1)c1ccc(F)cc1)NC1CCCCC1`, the cell number change was -39.7%. Under setting [1], the AC50 is 23.1 µM [falling, partial curve].

Take `Cc1cc(NS(=O)(=O)c2ccc(NC(=O)/C=C/c3cccc(Cl)c3)cc2)no1`: the cell number change was 4.69%.

`COc1ccc(N(C(=O)Cn2nnc(-c3ccc(C)o3)n2)C(C(=O)NC2CCCC2)c2ccncc2)cc1` (stereo not drawn): the cell number change is 17.1%. The concentration at half-maximal activity (AC50) under setting [2] is 3.55 µM [rising, single point].

Consider `CCN(CC)c1ccc(NC(=O)CCNS(=O)(=O)c2ccc3c(c2)CCC(=O)N3)c(C)c1`, for which the cell number change turned out to be 1.15%. For the same molecule, the concentration at half-maximal activity (AC50) under setting [2] was 5.8 µM [falling, single point].

For the molecule `CCOC(=O)C1=C(CC)Nc2ccccc2N=C1NC(=O)c1ccc(S(=O)(=O)N2CCOCC2)cc1`, the cell number change came to 23.5%. For the same molecule, the AC50 under setting [2] was 32.6 µM [rising, single point].

On to `Cc1cccc(CSCc2ccc(C(=O)O)o2)c1`, for which the cell number change came out at 12.3%. Moreover, under setting [2], the half-maximal activity concentration (AC50) was 0.00461 µM [rising, full curve].

Take `Cc1ccc(C(O)(c2ccccc2)c2ccccc2C(C)N(C)C)c(C)c1` (stereo not drawn): the cell number change is -33.9%. Besides, under setting [1], the AC50 is 32.6 µM [falling, single point]. Moreover, the AC50 under setting [2] was 29.1 µM [falling, single point].

As for `CCCCn1c(N)c(N(CCOC)C(=O)COc2ccc(C(C)=O)cc2)c(=O)[nH]c1=O`, the cell number change is -20.4%. In addition, the concentration at half-maximal activity (AC50) under setting [1] is 0.82 µM [falling, full curve, poor fit].

As to `Cc1ccccc1NC(=O)c1cn2c(nc3ccccc32)c(C#N)c1C`, the cell number change stood at 13.6%. The AC50 under setting [2] was 0.092 µM [rising, full curve, poor fit].

As for `COc1ccc(C(=O)NCCOc2ccccc2Cl)c(OC)c1OC`, the cell number change is 23.6%. Further, the AC50 under setting [1] is 0.82 µM [rising, full curve, poor fit]. The AC50 under setting [2] is 6.51 µM [falling, single point].

As to `COc1ccc(C2CC(c3ccc(C)cc3)Nc3nc(N)nn32)cc1` (stereo not drawn), the cell number change is -1.29%. Further, the AC50 under setting [2] was 0.461 µM [rising, full curve, poor fit].

Consider `N#Cc1c(N2CCCC(O)C2)nc(N)c2c(N)nc3c(c12)CC(=O)N3C12CC3CC(CC(C3)C1)C2` (stereo not drawn), for which the cell number change was -53.5%. Also, under setting [1], the concentration at half-maximal activity (AC50) is 29.1 µM [falling, single point].

Take `Cn1c(Cn2c(=O)sc3ccccc32)nnc1SCc1ccccn1`: the concentration at half-maximal activity (AC50) under setting [2] was 16.4 µM [falling, partial curve].

As for `COc1cc(/C=C(\C#N)C(=O)Nc2ccccn2)ccc1O`, the cell number change was -12.6%. Further, under setting [2], the AC50 was 0.326 µM [falling, single point].

In the case of `CC(NCC1COc2ccccc2O1)C(=O)NCc1ccccc1` (stereo not drawn), the cell number change was determined as 20%. Further, the AC50 under setting [1] is 0.00461 µM [rising, full curve, poor fit].

Consider `CC(C)(C)C(=O)N/C(N)=N/c1nc2ccccc2o1`, for which the cell number change is -3.53%.

As to `CCC(=O)Nc1cccc2ccccc12`, the cell number change came to 0.682%. Besides, the AC50 under setting [2] was 0.731 µM [falling, full curve, poor fit].

Take `N/C(=N\OC(=O)c1ccc(Cl)cc1)c1ccn[nH]1`: the cell number change amounted to 40.2%. Further, the AC50 under setting [1] is 23.1 µM [rising, partial curve]. Moreover, the AC50 under setting [2] was 29.1 µM [rising, single point].

In the case of `CC(C)n1cnc2c(N(C)c3ccccc3)nc(N(CCN(C)C)Cc3ccccc3)nc21`, the cell number change is -36.8%. In addition, the AC50 under setting [1] is 32.6 µM [falling, single point]. The AC50 under setting [2] is 10.3 µM [falling, single point].

For `COc1ccc(NS(=O)(=O)c2cccc(-c3nnc4n3CCCCC4)c2)cc1`, the cell number change is -22.4%. Moreover, the AC50 under setting [2] was 0.291 µM [falling, full curve, poor fit].

`COc1ccc(S(=O)(=O)N(C)C)cc1NC(=O)COC(=O)CC1CCCC1`: the cell number change is -15.8%. For the same molecule, the concentration at half-maximal activity (AC50) under setting [2] was 6.51 µM [rising, single point].

Take `O=C(c1cccnc1NCc1ccc(F)cc1)N1CCOCC1`: the cell number change was 3.19%. For the same molecule, under setting [2], the concentration at half-maximal activity (AC50) is 6.51 µM [falling, single point].

Take `O=C1c2ccccc2-c2nnc(-c3ccc(F)cc3)cc21`: the cell number change is -10.7%.

Take `CSc1sc(-c2n[nH]c(=S)n2C)c2c1C=CCC2`: the cell number change is 12%. The AC50 under setting [2] was 20.6 µM [rising, single point].

Turning to `COc1cccc(OCc2cc(C(=O)N3CCN(c4ccccc4OC)CC3)no2)c1`, the cell number change was found to be 22.6%. Under setting [2], the concentration at half-maximal activity (AC50) is 14.6 µM [rising, partial curve, poor fit].

Consider `CCc1nc(SCC(=O)Nc2c(C)n(C)n(-c3ccccc3)c2=O)n[nH]1`, for which the cell number change was -2.35%.

In the case of `N#CCCn1nnc(-c2ccccc2F)n1`, the cell number change was determined as 32%. Further, the AC50 under setting [1] was 29.1 µM [rising, single point]. Also, under setting [2], the AC50 is 29.1 µM [falling, single point].

Regarding `CCOc1ccc(N2C(=O)CC(Cc3ccccc3OC)C2=O)cc1` (stereo not drawn), the cell number change came out at 8.42%.

As to `Cc1ccc(NS(=O)(=O)c2cccc(C(=O)NCCCN3CCOCC3)c2)cc1`, the cell number change was -0.722%.

Turning to `CC(C)(C)C(=O)N1CCn2c1nc1ccccc12`, the cell number change is -41.1%. The AC50 under setting [1] is 3.66 µM [falling, partial curve]. Also, under setting [2], the concentration at half-maximal activity (AC50) is 14.6 µM [falling, partial curve].

With `Cc1onc(C(=O)N2CCC(C(N)=O)CC2)c1-c1ccccc1Cl`, the cell number change is -13.3%. The AC50 under setting [2] was 0.58 µM [falling, full curve, poor fit].

Turning to `CC(C)(CNC(=O)CCC1CCCC1)CNC(=O)CCC1CCCC1`, the cell number change is -6.36%. Also, the AC50 under setting [2] is 29.1 µM [falling, single point].

For `COc1ccc(NC(=O)CN(C)C(=O)CCc2c[nH]c3ccccc23)cc1`, the cell number change was 20.5%.

Take `Cc1ccsc1/C=C/C1=Cc2c(sc(NC(=O)CSc3n[nH]c(N)n3)c2C#N)C(C)(C)C1`: the cell number change was found to be 461%. For the same molecule, the concentration at half-maximal activity (AC50) under setting [1] was 20.6 µM [rising, partial curve]. For the same molecule, the half-maximal activity concentration (AC50) under setting [2] is 18.4 µM [rising, partial curve].

As to `Cc1cccc(/C=N/n2c(C3CCCCC3)n[nH]c2=S)c1`, the cell number change is -49.7%. In addition, under setting [1], the AC50 was 10.3 µM [falling, partial curve]. The AC50 under setting [2] was 13 µM [falling, partial curve].

In the case of `Cc1nc2sc(C#N)c(N)c2c2c1CCCC2`, the cell number change was found to be 41.3%. The AC50 under setting [1] is 23.1 µM [rising, single point].

`COc1ccc2c(C)cc(=O)oc2c1C`: the cell number change was -6.5%. Further, the half-maximal activity concentration (AC50) under setting [1] was 1.46 µM [rising, partial curve]. Moreover, under setting [2], the concentration at half-maximal activity (AC50) was 1.46 µM [rising, partial curve].

On to `O=C(Nc1ccccc1)c1ccc(N2CCN(c3ccccc3)CC2)c(S(=O)(=O)N2CCOCC2)c1`, for which the cell number change turned out to be 27.4%. The AC50 under setting [1] is 0.0326 µM [rising, full curve, poor fit]. Moreover, the AC50 under setting [2] is 5.8 µM [rising, single point].

Turning to `O=C1c2ccccc2-c2nc3ccccc3nc21`, the AC50 is 2.06 µM [rising, partial curve, poor fit] under setting [1] and 2.91 µM [rising, full curve] under setting [2].

Turning to `COc1cccc(N(C(=O)c2sc(C)nc2C)C(C(=O)NCC2CCCO2)c2ccccc2)c1` (stereo not drawn), the cell number change amounted to 15.8%.

For the molecule `O=C(/C=C/c1ccc(F)cc1)NC(=S)N1CCN(Cc2ccccc2)CC1`, the cell number change amounted to 17.1%. Besides, under setting [1], the concentration at half-maximal activity (AC50) is 6.51 µM [rising, single point]. In addition, under setting [2], the AC50 was 6.51 µM [rising, single point].

As for `O=C(COC(=O)Cc1c[nH]c2ccccc12)NCCc1ccccc1`, the cell number change was -22.5%.

As for `CCN1CCCC1CNS(=O)(=O)c1cccc(C(F)(F)F)c1` (stereo not drawn), the cell number change amounted to 10.9%. Further, the AC50 under setting [2] was 6.51 µM [falling, partial curve].

Regarding `NNC(=O)c1cc(S(=O)(=O)N2CCOCC2)c[nH]1`, the cell number change was -2.8%.

In the case of `Cn1c(SCc2ccc(C(=O)Nc3nccs3)cc2)nnc1-c1ccccc1`, the cell number change is 13.2%.

For `c1ccc(-c2ncc(-c3ccn[nH]3)s2)cc1`, the cell number change is -36.4%. Also, the AC50 under setting [1] was 32.6 µM [falling, single point]. Also, the AC50 under setting [2] is 0.411 µM [rising, partial curve, poor fit].

Turning to `CCOc1ccccc1C(=O)NC(CO)C(=O)O` (stereo not drawn), under setting [2], the concentration at half-maximal activity (AC50) was 29.1 µM [falling, single point].

Turning to `O=C(Oc1coc(CSc2ncccn2)cc1=O)c1ccco1`, the cell number change was -36%. For the same molecule, the concentration at half-maximal activity (AC50) under setting [1] was 2.31 µM [falling, partial curve, poor fit]. In addition, the AC50 under setting [2] was 0.206 µM [falling, full curve, poor fit].

In the case of `Cc1csc(NC(=O)c2c(-c3c(Cl)cccc3Cl)noc2C)n1`, the cell number change was determined as 41.9%. The AC50 under setting [1] is 1.84 µM [rising, full curve].

Consider `COc1ccc(Cn2c(=N)c(C(=O)NCC3CCCO3)cc3c(=O)n4ccccc4nc32)cc1` (stereo not drawn), for which the cell number change was 11%.

As to `CCOC(=O)C1=C(C)NC(C)=C(C(=O)OCC)C1C(=O)OCC(=O)N1CCCCC1CC` (stereo not drawn), the cell number change was 15%. For the same molecule, the AC50 under setting [2] is 6.51 µM [rising, single point].

Turning to `c1ccc(-c2csc(-c3ccc(-c4csnn4)cc3)n2)cc1`, the cell number change is -22.3%. Moreover, the AC50 under setting [2] was 29.1 µM [falling, single point].

On to `CC1CN(C(=O)CCC(=O)N2CCN(c3ccccn3)CC2)c2ccccc2O1` (stereo not drawn), for which the cell number change is -13%.

Consider `CCCC(CCC)C(=O)Nc1cccc(C(=O)O)c1`, for which the cell number change amounted to 5.18%. In addition, the half-maximal activity concentration (AC50) under setting [2] is 29.1 µM [rising, single point].

In the case of `O=C(CSc1ccccc1)Nc1ccc(NC(=O)c2ccco2)cc1`, the cell number change was found to be 14.4%.

For `C#CCOc1ccc(/C=C2/C(=O)ON=C2C)cc1Br`, the cell number change is -9.93%. The concentration at half-maximal activity (AC50) under setting [2] was 29.1 µM [falling, single point].

In the case of `CN(C)S(=O)(=O)c1ccc(C(=O)OCc2nnc(-c3ccccc3)o2)cc1`, the cell number change is -12.4%.

For the molecule `Nc1nc(SCC(=O)NNc2c(Cl)cc(Cl)cc2Cl)n[nH]1`, the cell number change came out at 1.04%. Also, under setting [1], the concentration at half-maximal activity (AC50) was 1.84 µM [falling, partial curve].

For `Cn1c(NCCCN2CCOCC2)nc2c1c(=O)n(Cc1ccc(Cl)c(Cl)c1)c(=O)n2C`, the cell number change is 16.1%.

On to `C=CCN1C(=NC(=O)CC)SC2CS(=O)(=O)CC21` (stereo not drawn), for which the cell number change came to 35.6%. Besides, the concentration at half-maximal activity (AC50) under setting [1] was 4.11 µM [rising, partial curve].

As to `Cc1ccc(-n2c(SCC(=O)N3CCCc4ccccc43)nnc2-c2cccnc2)c(C)c1`, the cell number change stood at 6.05%.

Regarding `COc1ccc(OC)c(CN2CCN(CC(=O)Nc3ccccc3C(=O)NC3CC3)CC2)c1`, the cell number change was found to be 5.97%. Also, the AC50 under setting [2] is 29.1 µM [rising, single point].
